PubChem BioAssay AID652243 | Drosophila RNAi Screening Center | 2013

Aim: 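Knock-downs that decrease or increase androgen receptor reporter signal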 (primary screen)
System: Drosophila S2R+ cells
Knock-down reagent: long dsRNA against Drosophila genes
Timing: 72 h (48 h, then 24 h hormone)
Treatment: synthetic androgen R1881 at 10 nM for 24 h
Detection: 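Firefly light from an androgen-responsive reporter and Renilla control light per well, raw and unnormalised, for each of two replicates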
Reading the numbers: firefly reporter light: higher = more light from androgen-responsive reporter; Renilla control light: higher = more constitutive control signal (cell number, transfection)
Rule for the call: 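Hit when the log firefly-to-Renilla ratio dropped or increased by a fixed fold versus the mean of GFP or LacZ controls across duplicate plates; lowering cut given as 1.5 and as 3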
Calls: active = hit: reporter lowered or raised; inactive = no hit
In all, the deposit lists about 24,000 reagents; below is an unselected part of those that have a named target and a result. In the full data, 246 (1%) were called active. 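Plates not normalised; calls are printed but the firefly/Renilla ratio behind them is not deposited; fold cut for lowering reported inconsistently.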 Raw values are not corrected between plates. Unmarked entries are inactive. The numbers tell different reagents against one gene apart. A plus sign joins genes that one reagent is predicted to hit. Not stated in the record: the amount of reagent.

no.	predicted target	reagent	firefly reporter light, replicate 1	firefly reporter light, replicate 2	Renilla control light, replicate 1	Renilla control light, replicate 2
1	CG18476	1	16452	46751	2.39e5	3.26e5
2	Hsp110	1	9.38e5	9.38e5	1.15e6	1.83e6
3	Hsp110	2	2.58e5	2.58e5	4.14e5	4.52e5
4	fmt	1	8.15e5	8.56e5	1.27e6	1.55e6
5	CG13311	1	1.12e5	97563	1.88e6	1.02e6
6	SK	1	7.31e5	6.15e5	7.57e5	5.82e5
7	SK	2	2.32e5	3.63e5	2.93e6	3.43e6
8	SK	3	63391	1.26e5	1.97e6	1.37e6
9	SK	4	1.03e5	1.06e5	8.23e5	5.33e5
10	SK	5	2.28e5	1.91e5	5.15e5	8.65e5
11	d4	1	1.08e6	3.53e5	2.08e6	7.42e5
12	d4	2	7.61e5	5.53e5	1.60e6	1.48e6
13	d4	3	2.51e5	2.17e5	4.51e5	2.88e5
14	CG14929	1	2.11e5	2.84e5	2.28e6	2.32e6
15	cdm	1	48973	66862	3.89e5	4.88e5
16	CG13989	1	1.44e5	1.63e5	1.29e6	1.42e6
17	CG9801	1	31228	17981	2.05e5	2.33e5
18	yip7	1	1.58e5	93316	1.53e6	9.48e5
19	yip7	2	4.03e5	3.51e5	9.08e5	5.80e5
20	Hmr	1	4.69e5	6.52e5	3.69e6	3.87e6
21	CG5639	1	1.75e5	2.11e5	2.77e6	2.75e6
22	CG5011	1	8.16e5	9.03e5	2.86e6	2.48e6
23	CG32727	1	7.04e5	6.64e5	1.11e6	1.14e6
24	Mkrn1	1	3.66e5	5.86e5	1.27e6	1.83e6
25	Mkrn1	2	2.68e5	3.54e5	3.20e5	4.04e5
26	CG13449	1	2.42e5	1.75e5	2.46e6	1.47e6
27	CG11007	1	1.25e6	8.82e5	1.25e6	7.91e5
28	CG9636	1	87322	1.13e5	5.85e5	7.66e5
29	fzr2	1	1.17e6	4.52e5	2.16e6	8.73e5

8 entries from above, reformatted:
predicted target,reagent,"firefly reporter light, replicate 1","firefly reporter light, replicate 2","Renilla control light, replicate 1","Renilla control light, replicate 2"
SK,1,7.31e5,6.15e5,7.57e5,5.82e5
SK,2,2.32e5,3.63e5,2.93e6,3.43e6
SK,3,63391,1.26e5,1.97e6,1.37e6
SK,4,1.03e5,1.06e5,8.23e5,5.33e5
SK,5,2.28e5,1.91e5,5.15e5,8.65e5
d4,1,1.08e6,3.53e5,2.08e6,7.42e5
d4,2,7.61e5,5.53e5,1.60e6,1.48e6
d4,3,2.51e5,2.17e5,4.51e5,2.88e5

The listing continues:
no.	predicted target	reagent	firefly reporter light, replicate 1	firefly reporter light, replicate 2	Renilla control light, replicate 1	Renilla control light, replicate 2
30	RtcB	1	2.06e5	1.88e5	2.63e6	2.42e6
31	Sodh2	1	68907	87082	1.59e6	2.40e6
32	svp	1	83374	48909	1.82e5	1.50e5
33	svp	2	4.91e5	5.30e5	3.07e6	2.95e6
34	svp	3	2.53e5	2.39e5	4.28e5	5.36e5
35	Tango14	1	1.14e5	72919	8.24e5	8.00e5
36	Tango14	2	9.24e5	9.48e5	1.12e6	1.37e6
37	Hph	1	50341	46176	3.55e5	4.58e5
38	Hph	2	97815	1.27e5	2.08e6	2.32e6
39	Hph	3	7.49e5	5.50e5	2.25e6	1.44e6
40	Hph	4	5.58e5	3.22e5	3.41e5	4.74e5
41	Hph	5	4.31e5	4.84e5	1.12e6	8.85e5
42	M6	1	2.69e5	2.09e5	2.35e6	2.25e6
43	Dop1R2	1	1.43e6	9.37e5	3.27e6	1.19e6
44	Dop1R2	2	2.00e5	2.01e5	1.40e6	2.74e6
45	Dop1R2	3	4.33e5	4.66e5	9.43e5	1.09e6
46	CG10887	1	8.10e5	7.88e5	2.24e6	1.94e6
47	CG10887	2	2.18e5	2.75e5	5.73e5	7.96e5
48	CG42245 + MEP-1	1	1.80e5	1.88e5	4.88e5	6.48e5
49	CG42245 + MEP-1	2	1.00e6	4.79e5	9.88e5	7.08e5
50	CG42245 + MEP-1	3	8.70e5	9.28e5	2.13e6	2.25e6
51	CG42245 + MEP-1	4	5.09e5	6.11e5	7.90e5	7.90e5
52	Neos	1	8.20e5	8.31e5	1.28e6	1.43e6
53	Pex10	1	4.05e5	4.47e5	2.98e6	2.63e6
54	Pex10	2	5.73e5	6.65e5	2.14e6	2.13e6
55	CG14270	1	2.59e5	2.70e5	3.03e6	3.67e6
56	CG14478	1	65378	82009	1.15e6	1.15e6
57	CG15083	1	1.17e5	1.34e5	1.58e6	1.85e6
58	CG10132	1	8.60e5	1.10e6	1.33e6	1.73e6
59	CG10132	2	8.47e5	5.30e5	2.94e6	1.66e6
60	Syx17	1	7.09e5	4.12e5	1.74e6	1.94e6
61	CG14642	1	38308	54007	4.10e5	4.78e5
62	Dhc1	1	1.36e5 (active)	2.40e5	2.81e6	2.78e6
63	CG42700	1	4.27e5	3.64e5	2.00e6	1.89e6
64	CG42700	2	7.34e5	8.49e5	1.52e6	1.80e6
65	CG42700	3	2.57e5	2.74e5	6.64e5	6.92e5
66	yellow-f	1	69036	65604	1.48e6	1.52e6
67	yellow-f	2	2.65e5	2.22e5	8.06e5	6.73e5
68	CG3191	1	5.44e5	7.12e5	1.70e6	2.01e6
69	CG3191	2	3.87e5	5.43e5	9.67e5	9.67e5
70	Pcyt2	1	9.96e5	1.15e6	1.63e6	2.57e6
71	Rpn8	1	95427	1.16e5	8.66e5	6.16e5
72	Rpn8	2	3.19e5	1.95e5	7.67e5	8.36e5
73	Pros28.2 (retired record)	1	1.73e5	2.03e5	3.61e6	3.58e6
74	Pros28.2 (retired record)	2	2.75e5	2.81e5	1.10e6	1.01e6
